# Source: PubChem BioAssay AID624491 (Broad Institute, 2012)
# In all, about 1,800 compounds went through this assay and about 1,400 (78%) were called active. The set was probably picked from earlier hits. This list was built around the results that the source calls inconclusive (neither active nor inactive); the mix of calls is not that of the screen.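 How the source made its calls: active means fitted curve crossing a set activation limit at or below the highest valid dose tested; inconclusive means flat fit at 30 to 70% activation, or poor fit; inactive means the rest, including signal decreases.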
# Experiment: blockers of NLG process in reporter cells – D54 ERlucT cells, luminescence, cherry-picks, dose response (AID 624491);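 further: signal gain reflects blocked N-linked glycosylation of a luciferase reporter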
# Settings: D54 ERlucT glycosylation luciferase reporter, 24 h; at 19.5 µM (top of the series)
row,Structure (SMILES),activation (NLG inhibition)
1,O=C1NC(=O)N(c2ccccc2)C(=O)/C1=C/C=C/c1ccco1,inconclusive: 91.5%
